In the supplement of paper PMC12823440, “Inhibitors supercharge kinase turnover through native proteolytic circuits” (Nature, 2025):
Counter-ions that a name gives are not always drawn. The list shows a part of the results. Hit calls seldom repeat between salt and free forms of one compound.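 Kinases were expressed as nanoluciferase fusions in K562 cells and luminescence was read every 4 h between 2 and 18 h as percent of control, DMSO set to 100% and a positive control to 0%. A time point counts as decreased when the signal drops significantly (2 sigma). The hit call is the authors' own, does not follow from the count of time points alone, and its rule is not shown.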

The chains behind the UniProt entries cited, without tags or fusion partners. Where a name states a change or a piece, a line headed by the entry shows the natural chain unless it says otherwise.
UniProt P31749: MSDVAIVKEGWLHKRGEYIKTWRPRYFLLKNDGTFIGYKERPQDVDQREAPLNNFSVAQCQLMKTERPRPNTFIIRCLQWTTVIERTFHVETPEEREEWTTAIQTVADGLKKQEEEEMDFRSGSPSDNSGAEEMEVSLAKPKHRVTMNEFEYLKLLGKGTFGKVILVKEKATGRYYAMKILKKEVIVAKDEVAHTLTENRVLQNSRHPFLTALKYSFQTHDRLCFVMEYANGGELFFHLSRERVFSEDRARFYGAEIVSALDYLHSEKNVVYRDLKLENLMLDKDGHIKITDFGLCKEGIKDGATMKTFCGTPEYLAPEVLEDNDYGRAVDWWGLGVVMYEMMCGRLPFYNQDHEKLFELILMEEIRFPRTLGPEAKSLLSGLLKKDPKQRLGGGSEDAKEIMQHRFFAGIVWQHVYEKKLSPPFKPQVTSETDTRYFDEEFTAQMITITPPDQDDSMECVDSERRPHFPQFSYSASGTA
UniProt Q9UM73: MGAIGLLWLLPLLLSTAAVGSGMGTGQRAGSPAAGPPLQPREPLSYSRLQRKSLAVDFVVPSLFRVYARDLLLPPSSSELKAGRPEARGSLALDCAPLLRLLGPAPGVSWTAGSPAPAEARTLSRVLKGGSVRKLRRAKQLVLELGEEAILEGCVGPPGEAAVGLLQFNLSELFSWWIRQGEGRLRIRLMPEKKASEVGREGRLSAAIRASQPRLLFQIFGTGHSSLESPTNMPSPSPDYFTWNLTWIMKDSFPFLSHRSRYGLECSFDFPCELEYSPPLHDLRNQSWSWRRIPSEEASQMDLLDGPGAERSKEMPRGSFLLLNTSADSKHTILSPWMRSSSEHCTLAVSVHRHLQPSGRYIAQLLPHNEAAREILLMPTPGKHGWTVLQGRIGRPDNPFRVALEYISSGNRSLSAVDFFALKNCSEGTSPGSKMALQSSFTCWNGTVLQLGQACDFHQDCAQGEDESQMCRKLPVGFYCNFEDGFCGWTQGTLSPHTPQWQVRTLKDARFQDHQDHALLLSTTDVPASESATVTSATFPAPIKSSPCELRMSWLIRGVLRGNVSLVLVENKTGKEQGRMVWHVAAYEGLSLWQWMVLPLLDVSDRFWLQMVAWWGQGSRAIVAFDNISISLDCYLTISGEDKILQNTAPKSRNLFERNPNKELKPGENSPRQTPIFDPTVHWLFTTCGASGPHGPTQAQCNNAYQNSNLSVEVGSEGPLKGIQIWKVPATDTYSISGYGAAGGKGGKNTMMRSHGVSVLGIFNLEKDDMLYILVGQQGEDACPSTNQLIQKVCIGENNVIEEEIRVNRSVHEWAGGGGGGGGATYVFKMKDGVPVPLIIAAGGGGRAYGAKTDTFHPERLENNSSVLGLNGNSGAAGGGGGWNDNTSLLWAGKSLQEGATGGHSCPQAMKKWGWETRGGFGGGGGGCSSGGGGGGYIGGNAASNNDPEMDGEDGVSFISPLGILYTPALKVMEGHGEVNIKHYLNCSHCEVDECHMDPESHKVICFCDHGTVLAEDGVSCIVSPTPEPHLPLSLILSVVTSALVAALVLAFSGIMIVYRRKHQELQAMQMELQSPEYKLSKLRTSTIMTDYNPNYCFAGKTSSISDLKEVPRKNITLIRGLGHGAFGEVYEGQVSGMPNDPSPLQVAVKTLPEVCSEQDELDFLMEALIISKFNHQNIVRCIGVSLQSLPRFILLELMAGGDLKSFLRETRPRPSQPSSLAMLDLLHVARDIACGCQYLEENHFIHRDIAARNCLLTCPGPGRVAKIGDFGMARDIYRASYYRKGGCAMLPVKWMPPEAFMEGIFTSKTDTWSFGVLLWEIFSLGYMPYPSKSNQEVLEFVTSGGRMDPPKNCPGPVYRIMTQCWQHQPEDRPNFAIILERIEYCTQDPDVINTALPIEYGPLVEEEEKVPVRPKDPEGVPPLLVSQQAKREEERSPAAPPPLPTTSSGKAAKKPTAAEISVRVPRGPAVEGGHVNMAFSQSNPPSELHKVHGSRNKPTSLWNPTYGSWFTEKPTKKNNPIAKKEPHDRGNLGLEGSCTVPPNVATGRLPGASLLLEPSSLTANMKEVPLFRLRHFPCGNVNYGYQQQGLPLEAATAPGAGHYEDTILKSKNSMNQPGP
UniProt P10398: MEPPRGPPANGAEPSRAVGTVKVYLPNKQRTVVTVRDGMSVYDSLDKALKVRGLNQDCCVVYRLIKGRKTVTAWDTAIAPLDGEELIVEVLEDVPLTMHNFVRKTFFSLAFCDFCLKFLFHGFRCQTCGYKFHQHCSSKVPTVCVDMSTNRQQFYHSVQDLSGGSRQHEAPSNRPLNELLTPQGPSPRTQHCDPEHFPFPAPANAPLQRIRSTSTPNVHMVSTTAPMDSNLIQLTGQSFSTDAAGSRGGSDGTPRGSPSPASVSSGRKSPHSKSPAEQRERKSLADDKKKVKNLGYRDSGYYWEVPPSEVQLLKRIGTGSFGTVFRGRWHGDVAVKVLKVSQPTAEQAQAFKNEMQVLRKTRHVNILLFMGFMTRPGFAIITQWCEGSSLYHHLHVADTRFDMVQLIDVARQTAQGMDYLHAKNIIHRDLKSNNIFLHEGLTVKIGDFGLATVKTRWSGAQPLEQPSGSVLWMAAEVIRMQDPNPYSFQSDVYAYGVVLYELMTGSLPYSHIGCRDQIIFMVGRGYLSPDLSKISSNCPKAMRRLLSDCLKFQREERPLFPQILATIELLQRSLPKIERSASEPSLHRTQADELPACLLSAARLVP
UniProt O14965: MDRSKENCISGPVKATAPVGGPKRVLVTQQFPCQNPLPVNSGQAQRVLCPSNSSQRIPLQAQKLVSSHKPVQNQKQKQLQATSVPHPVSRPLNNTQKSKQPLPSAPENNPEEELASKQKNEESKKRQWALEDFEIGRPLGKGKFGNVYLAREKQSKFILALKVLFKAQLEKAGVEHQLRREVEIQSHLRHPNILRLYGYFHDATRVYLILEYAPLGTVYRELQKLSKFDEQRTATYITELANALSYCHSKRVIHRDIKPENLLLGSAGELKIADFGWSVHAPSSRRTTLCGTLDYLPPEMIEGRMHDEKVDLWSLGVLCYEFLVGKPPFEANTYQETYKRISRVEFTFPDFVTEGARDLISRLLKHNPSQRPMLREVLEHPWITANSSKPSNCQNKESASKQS
UniProt P51813: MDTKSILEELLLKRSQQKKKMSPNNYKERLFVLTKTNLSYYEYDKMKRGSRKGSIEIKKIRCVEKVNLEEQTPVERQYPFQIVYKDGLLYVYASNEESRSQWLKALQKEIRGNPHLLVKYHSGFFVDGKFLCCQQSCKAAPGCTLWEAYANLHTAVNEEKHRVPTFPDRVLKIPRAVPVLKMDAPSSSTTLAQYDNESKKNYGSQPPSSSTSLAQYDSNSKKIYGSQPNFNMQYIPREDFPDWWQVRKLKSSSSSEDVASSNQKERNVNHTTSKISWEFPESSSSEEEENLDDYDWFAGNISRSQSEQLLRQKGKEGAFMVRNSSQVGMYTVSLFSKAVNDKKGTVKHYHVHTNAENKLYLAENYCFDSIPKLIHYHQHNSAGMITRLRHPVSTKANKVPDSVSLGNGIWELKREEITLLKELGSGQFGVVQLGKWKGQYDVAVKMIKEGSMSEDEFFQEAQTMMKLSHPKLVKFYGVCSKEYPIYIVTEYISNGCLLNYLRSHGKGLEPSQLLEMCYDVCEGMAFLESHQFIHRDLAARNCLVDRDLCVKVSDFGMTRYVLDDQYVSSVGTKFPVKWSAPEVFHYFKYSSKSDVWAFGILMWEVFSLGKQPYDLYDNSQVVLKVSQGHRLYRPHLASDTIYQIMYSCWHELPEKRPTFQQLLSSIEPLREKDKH
UniProt P15056, whole entry, looked up: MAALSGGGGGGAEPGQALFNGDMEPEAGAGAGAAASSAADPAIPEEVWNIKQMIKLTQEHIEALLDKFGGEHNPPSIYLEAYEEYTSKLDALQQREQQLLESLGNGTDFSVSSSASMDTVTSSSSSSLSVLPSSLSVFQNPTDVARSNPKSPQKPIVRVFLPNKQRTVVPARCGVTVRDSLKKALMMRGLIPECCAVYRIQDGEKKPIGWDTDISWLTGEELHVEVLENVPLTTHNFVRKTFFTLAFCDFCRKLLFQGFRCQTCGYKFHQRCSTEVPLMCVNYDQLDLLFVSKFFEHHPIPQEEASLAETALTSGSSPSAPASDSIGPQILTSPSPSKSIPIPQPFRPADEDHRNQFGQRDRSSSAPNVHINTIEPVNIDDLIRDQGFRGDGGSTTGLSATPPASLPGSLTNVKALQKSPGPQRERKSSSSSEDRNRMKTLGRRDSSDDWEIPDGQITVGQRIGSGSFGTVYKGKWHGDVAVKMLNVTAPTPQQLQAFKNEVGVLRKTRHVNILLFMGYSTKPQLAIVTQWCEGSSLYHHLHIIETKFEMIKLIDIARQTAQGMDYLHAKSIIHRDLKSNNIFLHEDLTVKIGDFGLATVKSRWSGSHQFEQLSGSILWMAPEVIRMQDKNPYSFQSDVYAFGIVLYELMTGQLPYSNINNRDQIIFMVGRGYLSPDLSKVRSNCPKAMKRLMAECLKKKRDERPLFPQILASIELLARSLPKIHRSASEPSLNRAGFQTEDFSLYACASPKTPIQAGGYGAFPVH
UniProt Q13555: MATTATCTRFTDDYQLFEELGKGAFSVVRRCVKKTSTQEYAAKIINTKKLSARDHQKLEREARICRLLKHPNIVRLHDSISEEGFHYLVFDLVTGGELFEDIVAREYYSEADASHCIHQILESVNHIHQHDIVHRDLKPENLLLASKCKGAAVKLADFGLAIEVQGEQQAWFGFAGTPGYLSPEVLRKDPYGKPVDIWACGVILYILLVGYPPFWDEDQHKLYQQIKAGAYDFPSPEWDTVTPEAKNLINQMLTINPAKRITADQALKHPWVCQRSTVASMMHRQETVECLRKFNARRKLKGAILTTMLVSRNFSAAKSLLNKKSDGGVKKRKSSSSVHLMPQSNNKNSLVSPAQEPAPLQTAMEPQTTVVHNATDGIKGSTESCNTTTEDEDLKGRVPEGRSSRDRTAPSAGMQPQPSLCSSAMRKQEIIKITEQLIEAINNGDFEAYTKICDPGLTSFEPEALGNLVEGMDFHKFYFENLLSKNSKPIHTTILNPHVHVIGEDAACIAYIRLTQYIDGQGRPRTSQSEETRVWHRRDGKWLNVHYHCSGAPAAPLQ
UniProt Q15131: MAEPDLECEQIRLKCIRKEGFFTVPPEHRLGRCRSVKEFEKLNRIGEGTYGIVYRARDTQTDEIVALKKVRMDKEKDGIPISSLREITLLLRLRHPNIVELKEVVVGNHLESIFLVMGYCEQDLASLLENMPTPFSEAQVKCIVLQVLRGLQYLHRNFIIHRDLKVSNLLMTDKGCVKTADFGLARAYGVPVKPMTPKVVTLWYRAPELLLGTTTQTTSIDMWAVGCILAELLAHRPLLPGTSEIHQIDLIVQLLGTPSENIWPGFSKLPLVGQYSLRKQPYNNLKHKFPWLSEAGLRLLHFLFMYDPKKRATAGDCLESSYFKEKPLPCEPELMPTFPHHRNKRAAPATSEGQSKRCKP
UniProt Q00526: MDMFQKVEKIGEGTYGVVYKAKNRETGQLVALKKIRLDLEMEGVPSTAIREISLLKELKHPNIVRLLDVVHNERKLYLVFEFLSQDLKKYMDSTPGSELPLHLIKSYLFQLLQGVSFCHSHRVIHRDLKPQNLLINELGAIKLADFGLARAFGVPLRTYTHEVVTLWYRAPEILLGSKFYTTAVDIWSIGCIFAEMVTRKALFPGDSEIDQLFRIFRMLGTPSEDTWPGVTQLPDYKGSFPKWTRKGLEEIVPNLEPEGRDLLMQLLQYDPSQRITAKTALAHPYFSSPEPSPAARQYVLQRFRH
UniProt P11802: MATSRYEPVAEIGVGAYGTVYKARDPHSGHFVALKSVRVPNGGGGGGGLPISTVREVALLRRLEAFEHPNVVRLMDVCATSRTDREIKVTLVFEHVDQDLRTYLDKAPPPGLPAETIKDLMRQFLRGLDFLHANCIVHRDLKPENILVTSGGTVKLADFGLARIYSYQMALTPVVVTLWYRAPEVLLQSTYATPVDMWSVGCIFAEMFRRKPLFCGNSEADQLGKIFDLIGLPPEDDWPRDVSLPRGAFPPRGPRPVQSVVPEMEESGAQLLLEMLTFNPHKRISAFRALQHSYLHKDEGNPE
UniProt Q00534, whole entry: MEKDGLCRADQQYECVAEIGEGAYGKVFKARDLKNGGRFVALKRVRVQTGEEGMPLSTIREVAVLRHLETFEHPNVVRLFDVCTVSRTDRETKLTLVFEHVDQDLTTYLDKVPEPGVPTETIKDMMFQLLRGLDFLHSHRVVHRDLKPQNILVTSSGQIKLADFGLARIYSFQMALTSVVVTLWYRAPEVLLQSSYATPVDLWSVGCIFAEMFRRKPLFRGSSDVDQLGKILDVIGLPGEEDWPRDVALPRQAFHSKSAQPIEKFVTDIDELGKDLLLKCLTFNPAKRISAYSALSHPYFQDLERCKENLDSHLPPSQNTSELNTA

How the values were obtained:
Test in all cases: kinase-Nluc reporter destabilization hit call (1 = scored as downregulated) (binary); higher = compound decreases kinase abundance
Details in all cases: K562; 2-18 h
ABL1 = ABL1 (UniProt P00519)
AKT1 = AKT1 (UniProt P31749)
ALK = ALK (UniProt Q9UM73)
ARAF = ARAF (UniProt P10398)
AURKA = AURKA (UniProt O14965)
AURKB = AURKB (UniProt Q96GD4)
AURKC = AURKC (UniProt Q9UQB9)
BLK = BLK (UniProt P51451)
BMX = BMX (UniProt P51813)
BRAF = BRAF (UniProt P15056)
BRAF_V600E = test system: BRAF_V600E
BTK = BTK (UniProt Q06187)
CAMK2A = CAMK2A (UniProt Q9UQM7)
CAMK2G = CAMK2G (UniProt Q13555)
CDK10 = CDK10 (UniProt Q15131)
CDK2 = CDK2 (UniProt P24941)
CDK3 = CDK3 (UniProt Q00526)
CDK4 = CDK4 (UniProt P11802)
CDK5 = CDK5 (UniProt Q00535)
CDK6 = CDK6 (UniProt Q00534)

Structure (SMILES) | kinase-Nluc reporter destabilization hit call (ABL1) | kinase-Nluc reporter destabilization hit call (AKT1) | kinase-Nluc reporter destabilization hit call (ALK) | kinase-Nluc reporter destabilization hit call (ARAF) | kinase-Nluc reporter destabilization hit call (AURKA) | kinase-Nluc reporter destabilization hit call (AURKB) | kinase-Nluc reporter destabilization hit call (AURKC) | kinase-Nluc reporter destabilization hit call (BLK) | kinase-Nluc reporter destabilization hit call (BMX) | kinase-Nluc reporter destabilization hit call (BRAF) | kinase-Nluc reporter destabilization hit call (BRAF_V600E) | kinase-Nluc reporter destabilization hit call (BTK) | kinase-Nluc reporter destabilization hit call (CAMK2A) | kinase-Nluc reporter destabilization hit call (CAMK2G) | kinase-Nluc reporter destabilization hit call (CDK10) | kinase-Nluc reporter destabilization hit call (CDK2) | kinase-Nluc reporter destabilization hit call (CDK3) | kinase-Nluc reporter destabilization hit call (CDK4) | kinase-Nluc reporter destabilization hit call (CDK5) | kinase-Nluc reporter destabilization hit call (CDK6)
COCCOc1cnc(Sc2cc(C)c(-c3csc(NC(=O)c4ccncc4)n3)c(C)c2)cn1 [T-1101 (tosylate)] (2.5 µM) | inactive: 0 | inactive: 0 | inactive: 0 | inactive: 0 | inactive: 0 | inactive: 0 | inactive: 0 | inactive: 0 | inactive: 0 | inactive: 0 | inactive: 0 | inactive: 0 | inactive: 0 | inactive: 0 | inactive: 0 | inactive: 0 | inactive: 0 | inactive: 0 | inactive: 0 | inactive: 0
C=C1C(=O)O[C@@H]2C[C@@]3(C)CCC[C@H](C)C3=C[C@H]12 [Alantolactone] (10 µM) | inactive: 0 | inactive: 0 | inactive: 0 | inactive: 0 | inactive: 0 | inactive: 0 | inactive: 0 | inactive: 0 | inactive: 0 | inactive: 0 | inactive: 0 | inactive: 0 | inactive: 0 | inactive: 0 | inactive: 0 | inactive: 0 | inactive: 0 | inactive: 0 | inactive: 0 | inactive: 0
COc1ccc(C2CC(c3ccccc3)=NN2c2ccc(S(N)(=O)=O)cc2)cc1 (stereo not given) (10 µM) | inactive: 0 | inactive: 0 | inactive: 0 | inactive: 0 | inactive: 0 | inactive: 0 | inactive: 0 | inactive: 0 | inactive: 0 | inactive: 0 | inactive: 0 | inactive: 0 | inactive: 0 | inactive: 0 | inactive: 0 | inactive: 0 | inactive: 0 | inactive: 0 | inactive: 0 | inactive: 0
O=[N+]([O-])c1cc(C(F)(F)F)cc([N+](=O)[O-])c1NNC(=S)Nc1ccc(F)cc1 (10 µM) | inactive: 0 | inactive: 0 | inactive: 0 | inactive: 0 | inactive: 0 | inactive: 0 | inactive: 0 | inactive: 0 | inactive: 0 | inactive: 0 | inactive: 0 | inactive: 0 | inactive: 0 | inactive: 0 | inactive: 0 | inactive: 0 | inactive: 0 | inactive: 0 | inactive: 0 | inactive: 0
CCN1CCN(Cc2ccc(Nc3ncc(F)c(-c4cc(F)c5nc(CO)n(C(C)C)c5c4)n3)nc2)CC1 [Abemaciclib metabolite M20] (2 µM) | inactive: 0 | inactive: 0 | inactive: 0 | inactive: 0 | inactive: 0 | inactive: 0 | inactive: 0 | inactive: 0 | inactive: 0 | inactive: 0 | inactive: 0 | inactive: 0 | inactive: 0 | inactive: 0 | inactive: 0 | inactive: 0 | inactive: 0 | inactive: 0 | inactive: 0 | inactive: 0
C/C(=C1/C(=O)Nc2ccc(NC(N)=O)cc21)c1ccc[nH]1 (10 µM) | inactive: 0 | inactive: 0 | inactive: 0 | inactive: 0 | inactive: 0 | inactive: 0 | inactive: 0 | inactive: 0 | inactive: 0 | inactive: 0 | inactive: 0 | inactive: 0 | inactive: 0 | inactive: 0 | inactive: 0 | inactive: 0 | inactive: 0 | inactive: 0 | inactive: 0 | inactive: 0
N[C@H](Cc1c[nH]c2ccccc12)C(=O)N/N=C/c1ccc2nccnc2c1 [Rhosin (hydrochloride)] (10 µM) | inactive: 0 | inactive: 0 | inactive: 0 | inactive: 0 | inactive: 0 | inactive: 0 | inactive: 0 | inactive: 0 | inactive: 0 | inactive: 0 | inactive: 0 | inactive: 0 | inactive: 0 | inactive: 0 | inactive: 0 | inactive: 0 | inactive: 0 | inactive: 0 | inactive: 0 | inactive: 0
CC(=O)c1c(C)c2cnc(Nc3ccc(N4CCN(CCCCNC(=O)COc5cccc6c5C(=O)N(C5CCC(=O)NC5=O)C6=O)CC4)cn3)nc2n(C2CCCC2)c1=O (stereo not given) (10 µM) | inactive: 0 | inactive: 0 | inactive: 0 | inactive: 0 | inactive: 0 | inactive: 0 | inactive: 0 | inactive: 0 | inactive: 0 | inactive: 0 | inactive: 0 | inactive: 0 | inactive: 0 | inactive: 0 | inactive: 0 | inactive: 0 | inactive: 0 | inactive: 0 | inactive: 0 | inactive: 0
C[C@@H]1C(=O)O[C@H](C)[C@H]1C[C@@H](O)[C@](C)(O)[C@H]1CC[C@@]2(O)C3=CC(=O)[C@@H]4C[C@@H](O)[C@@H](O)C[C@]4(C)[C@H]3CC[C@]12C [Cyasterone] (10 µM) | inactive: 0 | inactive: 0 | inactive: 0 | inactive: 0 | inactive: 0 | inactive: 0 | inactive: 0 | inactive: 0 | inactive: 0 | inactive: 0 | inactive: 0 | inactive: 0 | inactive: 0 | inactive: 0 | inactive: 0 | inactive: 0 | inactive: 0 | inactive: 0 | inactive: 0 | inactive: 0
O=C(O)c1cc(O)ccc1O [2,5-Dihydroxybenzoic acid] (10 µM) | inactive: 0 | inactive: 0 | inactive: 0 | inactive: 0 | inactive: 0 | inactive: 0 | inactive: 0 | inactive: 0 | inactive: 0 | inactive: 0 | inactive: 0 | inactive: 0 | inactive: 0 | inactive: 0 | inactive: 0 | inactive: 0 | inactive: 0 | inactive: 0 | inactive: 0 | inactive: 0
Cc1c(CN2CCN(C(=O)[C@H](C)O)CC2)sc2c(N3CCOCC3)nc(-c3cnc(N)nc3)nc12 [Apitolisib] (10 µM) | active: 1 | inactive: 0 | inactive: 0 | inactive: 0 | inactive: 0 | inactive: 0 | inactive: 0 | inactive: 0 | inactive: 0 | inactive: 0 | inactive: 0 | inactive: 0 | inactive: 0 | inactive: 0 | inactive: 0 | inactive: 0 | inactive: 0 | inactive: 0 | inactive: 0 | inactive: 0
O=C1NC(=O)C(=Cc2ccc(-c3ccc(F)cc3)o2)S1 (stereo in doubt) (10 µM) | inactive: 0 | inactive: 0 | inactive: 0 | inactive: 0 | inactive: 0 | inactive: 0 | inactive: 0 | inactive: 0 | inactive: 0 | inactive: 0 | inactive: 0 | inactive: 0 | inactive: 0 | inactive: 0 | inactive: 0 | inactive: 0 | inactive: 0 | inactive: 0 | inactive: 0 | inactive: 0
CNC(=O)c1ccc(-c2cnc3cnc(C(=O)N(C)c4ccc(Cl)cc4)cn23)cc1 (2.5 µM) | inactive: 0 | inactive: 0 | inactive: 0 | inactive: 0 | inactive: 0 | inactive: 0 | inactive: 0 | inactive: 0 | inactive: 0 | inactive: 0 | inactive: 0 | inactive: 0 | inactive: 0 | inactive: 0 | inactive: 0 | inactive: 0 | inactive: 0 | inactive: 0 | inactive: 0 | inactive: 0
CC1CCc2nc(N)c(C#N)c(-c3cccnc3)c2C1 (stereo not given) (10 µM) | inactive: 0 | inactive: 0 | inactive: 0 | inactive: 0 | inactive: 0 | inactive: 0 | inactive: 0 | inactive: 0 | inactive: 0 | inactive: 0 | inactive: 0 | inactive: 0 | inactive: 0 | inactive: 0 | inactive: 0 | inactive: 0 | inactive: 0 | inactive: 0 | inactive: 0 | inactive: 0
COc1ccc(-c2ccc3c(N4CCOC[C@@H]4C)nc(N4CCOC[C@@H]4C)nc3n2)cc1CO (2.5 µM) | active: 1 | inactive: 0 | inactive: 0 | inactive: 0 | inactive: 0 | inactive: 0 | inactive: 0 | inactive: 0 | inactive: 0 | inactive: 0 | inactive: 0 | inactive: 0 | inactive: 0 | inactive: 0 | inactive: 0 | inactive: 0 | inactive: 0 | inactive: 0 | inactive: 0 | inactive: 0
COc1c(NC(=O)C(=O)c2ccc(OCCN3CCOCC3)c3ccccc23)cc(C(C)(C)C)cc1NS(C)(=O)=O (2.5 µM) | inactive: 0 | inactive: 0 | inactive: 0 | inactive: 0 | inactive: 0 | inactive: 0 | inactive: 0 | inactive: 0 | inactive: 0 | inactive: 0 | inactive: 0 | inactive: 0 | inactive: 0 | inactive: 0 | inactive: 0 | inactive: 0 | inactive: 0 | inactive: 0 | inactive: 0 | inactive: 0
CCn1c(-c2nonc2N)nc2cnc(Oc3cccc(NC(=O)c4ccc(OCCN5CCOCC5)cc4)c3)cc21 (10 µM) | inactive: 0 | inactive: 0 | inactive: 0 | inactive: 0 | inactive: 0 | inactive: 0 | inactive: 0 | inactive: 0 | active: 1 | inactive: 0 | inactive: 0 | inactive: 0 | inactive: 0 | inactive: 0 | inactive: 0 | inactive: 0 | inactive: 0 | inactive: 0 | inactive: 0 | inactive: 0
CCN(CC)c1ccc2cc(C(=O)N3CCN(C(=O)C4=Cc5c(Br)cccc5S4(=O)=O)CC3)c(=O)oc2c1 (2 µM) | inactive: 0 | inactive: 0 | inactive: 0 | inactive: 0 | inactive: 0 | inactive: 0 | inactive: 0 | inactive: 0 | inactive: 0 | inactive: 0 | inactive: 0 | inactive: 0 | inactive: 0 | inactive: 0 | inactive: 0 | inactive: 0 | inactive: 0 | inactive: 0 | inactive: 0 | inactive: 0

Four entries already listed, arranged by molar mass, ascending.
Structure (SMILES) | kinase-Nluc reporter destabilization hit call (ABL1) | kinase-Nluc reporter destabilization hit call (AKT1) | kinase-Nluc reporter destabilization hit call (ALK) | kinase-Nluc reporter destabilization hit call (ARAF) | kinase-Nluc reporter destabilization hit call (AURKA) | kinase-Nluc reporter destabilization hit call (AURKB) | kinase-Nluc reporter destabilization hit call (AURKC) | kinase-Nluc reporter destabilization hit call (BLK) | kinase-Nluc reporter destabilization hit call (BMX) | kinase-Nluc reporter destabilization hit call (BRAF) | kinase-Nluc reporter destabilization hit call (BRAF_V600E) | kinase-Nluc reporter destabilization hit call (BTK) | kinase-Nluc reporter destabilization hit call (CAMK2A) | kinase-Nluc reporter destabilization hit call (CAMK2G) | kinase-Nluc reporter destabilization hit call (CDK10) | kinase-Nluc reporter destabilization hit call (CDK2) | kinase-Nluc reporter destabilization hit call (CDK3) | kinase-Nluc reporter destabilization hit call (CDK4) | kinase-Nluc reporter destabilization hit call (CDK5) | kinase-Nluc reporter destabilization hit call (CDK6)
C=C1C(=O)O[C@@H]2C[C@@]3(C)CCC[C@H](C)C3=C[C@H]12 [Alantolactone] (10 µM) | inactive: 0 | inactive: 0 | inactive: 0 | inactive: 0 | inactive: 0 | inactive: 0 | inactive: 0 | inactive: 0 | inactive: 0 | inactive: 0 | inactive: 0 | inactive: 0 | inactive: 0 | inactive: 0 | inactive: 0 | inactive: 0 | inactive: 0 | inactive: 0 | inactive: 0 | inactive: 0
CC1CCc2nc(N)c(C#N)c(-c3cccnc3)c2C1 (stereo not given) (10 µM) | inactive: 0 | inactive: 0 | inactive: 0 | inactive: 0 | inactive: 0 | inactive: 0 | inactive: 0 | inactive: 0 | inactive: 0 | inactive: 0 | inactive: 0 | inactive: 0 | inactive: 0 | inactive: 0 | inactive: 0 | inactive: 0 | inactive: 0 | inactive: 0 | inactive: 0 | inactive: 0
COCCOc1cnc(Sc2cc(C)c(-c3csc(NC(=O)c4ccncc4)n3)c(C)c2)cn1 [T-1101 (tosylate)] (2.5 µM) | inactive: 0 | inactive: 0 | inactive: 0 | inactive: 0 | inactive: 0 | inactive: 0 | inactive: 0 | inactive: 0 | inactive: 0 | inactive: 0 | inactive: 0 | inactive: 0 | inactive: 0 | inactive: 0 | inactive: 0 | inactive: 0 | inactive: 0 | inactive: 0 | inactive: 0 | inactive: 0
CCN(CC)c1ccc2cc(C(=O)N3CCN(C(=O)C4=Cc5c(Br)cccc5S4(=O)=O)CC3)c(=O)oc2c1 (2 µM) | inactive: 0 | inactive: 0 | inactive: 0 | inactive: 0 | inactive: 0 | inactive: 0 | inactive: 0 | inactive: 0 | inactive: 0 | inactive: 0 | inactive: 0 | inactive: 0 | inactive: 0 | inactive: 0 | inactive: 0 | inactive: 0 | inactive: 0 | inactive: 0 | inactive: 0 | inactive: 0
